# Where cells or extracts were used, other partners may take part. For some assays here: A negative result means that nothing was seen under these conditions. Protein sequences can lack the tags named with them. For some assays here: Weaker means in comparison with the reference protein, sequence or condition of that experiment.
# Columns and labels:
# Test in all cases: EMSA
# [1] = molecular target: T1, SIP1 full size (SIP1FS) (mouse) (UniProt Q9R0G7); conditions: protein in a lysate after overexpression, protein details: N-terminal (Myc)6, pCS3, COS1 extract, label: 32P
# T1 sequence (looked up): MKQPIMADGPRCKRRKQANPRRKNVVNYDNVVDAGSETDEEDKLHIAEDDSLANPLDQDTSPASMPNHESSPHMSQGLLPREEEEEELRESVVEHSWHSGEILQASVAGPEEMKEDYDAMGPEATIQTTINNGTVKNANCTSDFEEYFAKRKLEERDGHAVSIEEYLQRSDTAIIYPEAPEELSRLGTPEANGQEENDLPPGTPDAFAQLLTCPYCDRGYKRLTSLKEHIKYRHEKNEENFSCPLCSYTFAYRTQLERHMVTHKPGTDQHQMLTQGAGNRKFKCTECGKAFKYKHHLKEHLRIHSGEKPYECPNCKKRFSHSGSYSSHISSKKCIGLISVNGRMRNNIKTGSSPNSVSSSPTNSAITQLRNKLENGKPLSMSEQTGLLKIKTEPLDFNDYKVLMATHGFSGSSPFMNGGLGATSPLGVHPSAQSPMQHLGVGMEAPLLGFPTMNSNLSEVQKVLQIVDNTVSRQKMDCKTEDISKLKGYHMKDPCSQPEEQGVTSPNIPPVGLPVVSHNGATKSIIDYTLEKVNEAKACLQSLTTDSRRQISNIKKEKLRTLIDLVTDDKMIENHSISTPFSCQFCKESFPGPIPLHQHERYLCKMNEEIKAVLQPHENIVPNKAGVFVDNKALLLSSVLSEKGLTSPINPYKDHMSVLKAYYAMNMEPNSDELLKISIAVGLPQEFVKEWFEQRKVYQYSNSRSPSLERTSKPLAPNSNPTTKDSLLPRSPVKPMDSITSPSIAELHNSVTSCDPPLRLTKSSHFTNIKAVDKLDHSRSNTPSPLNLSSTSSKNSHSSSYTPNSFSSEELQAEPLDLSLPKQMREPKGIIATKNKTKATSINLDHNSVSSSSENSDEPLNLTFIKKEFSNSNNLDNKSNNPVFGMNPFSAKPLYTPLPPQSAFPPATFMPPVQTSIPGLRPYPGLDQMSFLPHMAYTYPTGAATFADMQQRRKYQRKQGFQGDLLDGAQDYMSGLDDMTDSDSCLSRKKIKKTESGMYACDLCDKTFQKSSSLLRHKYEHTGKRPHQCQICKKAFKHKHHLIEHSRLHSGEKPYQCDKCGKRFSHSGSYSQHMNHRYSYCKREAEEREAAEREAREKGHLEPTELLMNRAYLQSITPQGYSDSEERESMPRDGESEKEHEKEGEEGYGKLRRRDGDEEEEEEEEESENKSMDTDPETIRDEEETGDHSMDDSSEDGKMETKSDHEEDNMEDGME
# deltaEF1 full length = molecular target: T2, deltaEF1 full length (UniProt Q64318); conditions: protein in a lysate after overexpression, protein details: N-terminal (Myc)6, pCS3, COS1 extract, label: 32P
# T2 sequence (looked up): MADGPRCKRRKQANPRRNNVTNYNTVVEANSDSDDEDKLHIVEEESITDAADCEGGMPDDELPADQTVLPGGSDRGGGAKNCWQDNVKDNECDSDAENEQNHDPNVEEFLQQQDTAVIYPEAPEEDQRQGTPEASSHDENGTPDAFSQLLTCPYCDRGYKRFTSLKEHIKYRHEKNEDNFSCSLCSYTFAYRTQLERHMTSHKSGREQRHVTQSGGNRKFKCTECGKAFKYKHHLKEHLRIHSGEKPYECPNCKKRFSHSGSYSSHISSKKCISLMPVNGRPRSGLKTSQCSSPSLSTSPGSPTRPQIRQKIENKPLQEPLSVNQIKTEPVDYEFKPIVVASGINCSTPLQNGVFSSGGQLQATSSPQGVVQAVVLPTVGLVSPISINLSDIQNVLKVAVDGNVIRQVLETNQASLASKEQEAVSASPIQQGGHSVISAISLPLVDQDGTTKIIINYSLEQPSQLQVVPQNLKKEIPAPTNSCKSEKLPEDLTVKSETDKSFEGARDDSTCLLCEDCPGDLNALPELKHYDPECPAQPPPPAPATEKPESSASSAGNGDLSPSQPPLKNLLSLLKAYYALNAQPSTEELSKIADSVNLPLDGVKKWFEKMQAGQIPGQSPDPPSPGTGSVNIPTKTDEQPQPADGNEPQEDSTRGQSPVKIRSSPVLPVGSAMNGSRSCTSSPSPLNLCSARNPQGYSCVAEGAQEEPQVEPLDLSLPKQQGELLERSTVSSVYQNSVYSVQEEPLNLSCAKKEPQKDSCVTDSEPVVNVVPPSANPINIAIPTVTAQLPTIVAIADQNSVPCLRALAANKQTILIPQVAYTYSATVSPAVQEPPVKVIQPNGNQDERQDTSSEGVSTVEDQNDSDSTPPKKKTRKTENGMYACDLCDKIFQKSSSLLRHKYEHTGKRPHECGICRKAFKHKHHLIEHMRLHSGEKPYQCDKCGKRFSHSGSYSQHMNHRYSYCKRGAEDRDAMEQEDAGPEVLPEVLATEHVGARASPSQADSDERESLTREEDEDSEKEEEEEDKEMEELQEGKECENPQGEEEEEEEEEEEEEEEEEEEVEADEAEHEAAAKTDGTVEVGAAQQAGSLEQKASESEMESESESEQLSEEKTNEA
# SIP1CZF (mouse) = molecular target: T3, SIP1CZF (mouse) (UniProt Q9R0G7); conditions: protein in a lysate after overexpression, protein details: (Myc)6, pCS3, COS1 extract, label: 32P
# T3 sequence (looked up): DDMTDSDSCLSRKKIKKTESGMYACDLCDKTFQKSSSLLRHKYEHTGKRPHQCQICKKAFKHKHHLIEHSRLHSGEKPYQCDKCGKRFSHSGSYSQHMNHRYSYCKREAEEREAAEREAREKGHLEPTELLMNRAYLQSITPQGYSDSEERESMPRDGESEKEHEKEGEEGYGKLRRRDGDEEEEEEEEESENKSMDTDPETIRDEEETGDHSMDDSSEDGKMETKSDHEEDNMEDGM
# [2] = upstream CACCT mutated, variant of Xbra-WT
# [3] = abolished or strongly affected, 50 ng does not compete, variant of alpha4I-WT
# [4] = abolished or strongly affected, variant of alpha4I-WT
# [5] = not among mutants affecting binding, variant of Xbra-WT
# [6] = equal to WT, variant of Xbra-WT
# [7] = no effect versus WT, variant of Xbra-WT
# [8] = strongest binding, variant of Xbra-E
# [9] = equal to WT (p117 reports a 3 bp spacing deletion, Mut3, as weakened), variant of Xbra-WT
sequence,measurement,setting,value
ATCCAGGCCCAATAAAATATAGAATGATAAAGTGACCAGGTGTCAGTTCT (double strand) [Xbra-M],binding result,[1]; [2],no binding
AGAACTGACACCTGGTCACTTTATAAAGTGACCAGGTGTCAGTTCT (double strand) [Xbra-ErE],binding result,[1]; variant of Xbra-E,binds
same,binding result,deltaEF1 full length; variant of Xbra-E,binds
GCAGGGCACACCTGGATTGCATTAGAATGAGACTCACTACCCAGTTCAGATGTGTTGCGT (double strand) [alpha4I-A],binding result,[1]; [3],binds more weakly
same,binding result,deltaEF1 full length; [4],binds more weakly
GCACAGGCCACCTAAAATATAGAATGATAAAGTGACCAGGTGTCAGTTCT (double strand) [Xbra-J],binding result,[1]; [5],binds
ATCCAGGCCACCTAAAATCGCGAATGATAAAGTGACCAGGTGTCAGTTCT (double strand) [Xbra-P],binding result,[1]; [5],binds
CAATTTAGAGTACTGTGTACTTGGGAGGGCTCAGACAGGTGTAGAATTCGGCG (double strand) [Rdm+AREB6],binding result,[1]; variant of Xbra-F+AREB6,no binding
same,binding result,"SIP1CZF (mouse); equal to Xbra-F+AREB6, variant of Xbra-F+AREB6",binds
ATCCAGGCCACCTAACCGATAGAATGATAAAGTGACCAGGTGTCAGTTCT (double strand) [Xbra-O],binding result,[1]; [5],binds
GCAGGGCACATCTGGATTGCATTAGAATGAGACTCACTACCCAGTTCAGGTGTGTTGCGT (double strand) [alpha4I-B],binding result,[1]; [3],binds more weakly
same,binding result,deltaEF1 full length; [4],binds more weakly
ATCCAGGCCATCTAAAATATAGAATGATAAAGTGACCAGGTGTCAGTTCT (double strand) [Xbra-S],binding result,[1]; variant of Xbra-WT,no binding
same,binding result,deltaEF1 full length; variant of Xbra-WT,no binding
ATCACTGCCACCTAAAATATAGAATGATAAAGTGACCAGGTGTCAGTTCT (double strand) [Xbra-K],binding result,[1]; [5],binds
ATCCAGGCCACCTAAAATATAGAATGAGGCTCAGACAGGTGTAGAATTCGGCG (double strand) [Xbra-F+AREB6],binding result,[1],binds
same,binding result,SIP1CZF (mouse); equal to Rdm+AREB6,binds
ATCCAGGCCACCTAAAATATAGAAGTCTAAAGTGACCAGGTGTCAGTTCT (double strand) [Xbra-R],binding result,[1]; [5],binds
ATCCAGGCCACCTAAAATATAGTGACCAGGTGTCAGTTCT (double strand) [Xbra-U],binding result,[1]; [6],binds
same,binding result,deltaEF1 full length; [6],binds
ATCCAGGCAGGTGTAAATATAGAATGATAAAGTGACCCACCTACAGTTCT (double strand) [Xbra-V],binding result,[1]; [7],binds
same,binding result,deltaEF1 full length; variant of Xbra-WT,binds
ATCCAGTAAACCTAAAATATAGAATGATAAAGTGACCAGGTGTCAGTTCT (double strand) [Xbra-L],binding result,[1]; [2],no binding
CAATTTAGAGTACTGTGTACTTGGGAGTAAAGTGACCAGGTGTCAGTTCT (double strand) [Rdm+Xbra-E],binding result,[1]; variant of Xbra-WT,no binding
same,binding result,SIP1CZF (mouse); variant of Xbra-WT,binds
TAAAGTGACCAGGTGTCAGTTCTTAAAGTGACCAGGTGTCAGTTCT (double strand) [Xbra-EE],binding result,[1]; [8],binds
same,binding result,deltaEF1 full length; [8],binds
ATCCAGGCCACCTAAAATATATCCTGATAAAGTGACCAGGTGTCAGTTCT (double strand) [Xbra-Q],binding result,[1]; [5],binds
ATCCAGGCAGGTGTAAATATAGAATGATAAAGTGACCAGGTGTCAGTTCT (double strand) [Xbra-W],binding result,[1]; [7],binds
same,binding result,deltaEF1 full length; variant of Xbra-WT,binds
ATCCAGGCCACCTAAAATATAGAATATTCTATATTTTAGGTGGCCTGGAT (double strand) [Xbra-FrF],binding result,[1]; variant of Xbra-F,no binding
same,binding result,deltaEF1 full length; variant of Xbra-F,no binding
ATCCAGGCCACCTAAAATATAGAATGATGTGACCAGGTGTCAGTTCT (double strand) [Xbra-C],binding result,[1]; [9],binds
same,binding result,deltaEF1 full length; [6],binds
ATCCAGGCCACCGCCAATATAGAATGATAAAGTGACCAGGTGTCAGTTCT (double strand) [Xbra-N],binding result,[1]; [2],no binding
ATCCAGGCCACCTAAAATATAGAATGATAAAGTGACTAGGTGTCAGTTCT (double strand) [Xbra-Z],binding result,"[1]; CACCTG to CACCTA, strongly decreased, variant of Xbra-WT",binds more weakly
same,binding result,"deltaEF1 full length; strongly decreased, variant of Xbra-WT",binds more weakly
TGGCCGGCAGGTGAACCCTCAGCCAATCAGCGGTACGGGGGGCGGTGCTCCGGGGCTCACCTGGCTGCAG (double strand) [Ecad-WT],binding result,[1],binds
same,binding result,deltaEF1 full length,binds
ATCCAGGCCACCTATATAGAATGATAAAGTGACCAGGTGTCAGTTCT (double strand) [Xbra-B],binding result,[1]; [9],binds
same,binding result,deltaEF1 full length; [6],binds

# Source: patent US20030044809A1, “Nucleic acid binding of multi-zinc finger transcription factors” (published 2003)
